These are yes or no findings as the source states them, for the method shown. Binding seen in cells or lysates may run through a third protein. Some binding calls cover weakened binding; strength is not graded here. Tags and fused reporters may be left off the sequences shown.
Biological target: ClpC1-MYC (MYC-tagged Arabidopsis ClpC1) (Arabidopsis thaliana) (UniProt Q9FI56)
Experiment: co-IP; protein extracts of N. benthamiana leaves transiently producing DXS-GFP alone or together with ClpC1-MYC; IP with anti-MYC antibodies, immunoblot with anti-GFP or anti-MYC sera

By UniProt entry, the sequences of proteins in these tests, tags left out. Residues count along the entry.
UniProt Q9FI56, residues 39-929: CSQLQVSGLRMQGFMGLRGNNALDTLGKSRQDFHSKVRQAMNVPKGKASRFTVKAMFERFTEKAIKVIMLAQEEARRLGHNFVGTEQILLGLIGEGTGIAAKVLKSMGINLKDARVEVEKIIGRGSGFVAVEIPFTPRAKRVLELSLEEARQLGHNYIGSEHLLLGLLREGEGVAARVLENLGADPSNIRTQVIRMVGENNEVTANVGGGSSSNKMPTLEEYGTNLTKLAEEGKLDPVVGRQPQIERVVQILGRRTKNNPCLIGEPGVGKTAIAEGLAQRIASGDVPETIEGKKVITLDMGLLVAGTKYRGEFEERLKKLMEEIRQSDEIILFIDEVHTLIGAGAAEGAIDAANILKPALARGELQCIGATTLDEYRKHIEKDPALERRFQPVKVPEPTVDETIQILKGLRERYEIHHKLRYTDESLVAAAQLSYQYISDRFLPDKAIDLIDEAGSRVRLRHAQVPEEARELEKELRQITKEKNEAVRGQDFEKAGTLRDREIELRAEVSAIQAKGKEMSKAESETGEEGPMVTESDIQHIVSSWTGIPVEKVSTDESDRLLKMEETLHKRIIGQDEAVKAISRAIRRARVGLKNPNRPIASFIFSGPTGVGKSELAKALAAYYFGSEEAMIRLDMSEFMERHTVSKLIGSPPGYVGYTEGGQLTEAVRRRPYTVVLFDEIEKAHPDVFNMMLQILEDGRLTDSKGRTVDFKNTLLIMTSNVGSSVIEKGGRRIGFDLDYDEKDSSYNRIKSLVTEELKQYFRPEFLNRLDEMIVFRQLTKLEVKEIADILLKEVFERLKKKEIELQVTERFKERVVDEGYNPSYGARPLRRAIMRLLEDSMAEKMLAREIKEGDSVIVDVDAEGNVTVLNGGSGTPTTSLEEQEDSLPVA

B1: DXS-GFP (GFP-tagged Arabidopsis deoxyxylulose 5-phosphate synthase) (enzyme, UniProt Q38854 59-717)
chain: ASLAEKGEYYSNRPPTPLLDTINYPIHMKNLSVKELKQLSDELRSDVIFNVSKTGGHLGSSLGVVELTVALHYIFNTPQDKILWDVGHQSYPHKILTGRRGKMPTMRQTNGLSGFTKRGESEHDCFGTGHSSTTISAGLGMAVGRDLKGKNNNVVAVIGDGAMTAGQAYEAMNNAGYLDSDMIVILNDNKQVSLPTATLDGPSPPVGALSSALSRLQSNPALRELREVAKGMTKQIGGPMHQLAAKVDEYARGMISGTGSSLFEELGLYYIGPVDGHNIDDLVAILKEVKSTRTTGPVLIHVVTEKGRGYPYAERADDKYHGVVKFDPATGRQFKTTNKTQSYTTYFAEALVAEAEVDKDVVAIHAAMGGGTGLNLFQRRFPTRCFDVGIAEQHAVTFAAGLACEGLKPFCAIYSSFMQRAYDQVVHDVDLQKLPVRFAMDRAGLVGADGPTHCGAFDVTFMACLPNMIVMAPSDEADLFNMVATAVAIDDRPSCFRYPRGNGIGVALPPGNKGVPIEIGKGRILKEGERVALLGYGSAVQSCLGAAVMLEERGLNVTVADARFCKPLDRALIRSLAKSHEVLITVEEGSIGGFGSHVVQFLALDGLLDGKLKWRPMVLPDRYIDHGAPADQLAEAGLMPSHIAATALNLIGAPREALF
For B1, the binding was “binds”.

Reference: publication PMC4729485
